Measurements taken from PubChem BioAssay AID504444 (National Center for Advancing Translational Sciences (NCATS), 2011).
Among all 360,000 compounds or so, about 7,500 (2.1%) were called active. The shares of active, inactive and inconclusive entries below differ from those in the screen. Calls come from the whole dose curve; as a rule, active = well fitted inhibition curve with a large enough effect; inconclusive = small, poorly fitted or top-dose-only effect, or effect the other way; inactive = flat fitted curve, though single readings scatter. A potency beside an inconclusive call is a rough fit, not a confirmed value.

assay: Nrf2 qHTS screen for inhibitors; settings: A549 ARE-Fluc reporter, luciferase luminescence, 18-24 h; activity change, negative = inhibition: at 46 µM (top of the series); note: nearly all actives have a fitted effect of over 60% in size
Method in brief: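 A549 ARE_Fluc cells, 5000/well, 5% FBS OPTI-MEM; compounds in dose-response, 18-24 h at 37 °C/5% CO2; CellTiter-Fluor viability read (Ex 405/Em 525), then BugLite luciferase luminescence = Nrf2 activity.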
% is set by controls: 0 for no effect and ±100 for the full control effect; potency is the fitted concentration of half-maximal effect.

**Q.** Which “activity change, negative = inhibition” value does the source give for `Cc1ccc[n+](CC(=O)Nc2cc(C(F)(F)F)ccc2Cl)c1` here?
**A.** inactive: 10.6%

**Q.** Which Potency does the source give for `CSc1nc2nccc(-c3ccc(-c4ccccc4)cc3)n2n1` here?
**A.** inconclusive: 16.4 µM [falling, partial curve]

**Q.** With `CCC(=O)NC(=S)Nc1ccc(NC(=O)c2ccco2)c(OC)c1` as the compound, how does the Potency read?
**A.** inconclusive: 0.291 µM [activator, full curve, poor fit]

**Q.** For `CCOc1ccc(-n2c(C)cc(/C=C3/C(=N)N4C(=NC3=O)SN=C4S(C)(=O)=O)c2C)cc1`, which Potency is on record?
**A.** active: 4.61 µM

**Q.** With `CC1CCc2c(nc3ncnn3c2NCCc2ccccc2F)C1` (centres undefined) as the compound, how does the Potency read?
**A.** active: 3.26 µM

**Q.** Which Potency does the source give for `O=C1NC(=Nc2ccccc2Br)SC1(CO)CO` here?
**A.** inconclusive: 7.31 µM [activator, partial curve, poor fit]

**Q.** For `CCc1ccccc1N1C(=O)c2cccc3c(N4CCOCC4)c([N+](=O)[O-])cc(c23)C1=O`, which Potency is on record?
**A.** inconclusive: 16.4 µM [falling, single point]

**Q.** Which Potency does the source give for `COc1ccc(N(Cc2cc3cccc(C)c3[nH]c2=O)S(=O)(=O)c2ccc(Cl)cc2)cc1` here?
**A.** inconclusive: 6.51 µM [falling, single point]

**Q.** For `CN(Cc1ccccc1)C(=O)c1oc(=O)c2ccccc2c1-c1ccccc1`, which “activity change, negative = inhibition” value is on record?
**A.** inactive: 1.37%

**Q.** For `CC(C)N(Cc1ccccc1)C(=O)c1nc(-c2ccc(Cl)cc2)n2c1CCCCC2`, which Potency is on record?
**A.** active: 20.6 µM

**Q.** For `COc1ccc(CCNC(=O)CSc2nc(-c3ccc(OC)c(OC)c3)ccc2C#N)cc1`, which Potency is on record?
**A.** active: 18.4 µM

**Q.** For `CCCOc1cccc(C(=O)Nc2cccc3ncccc23)c1`, which Potency is on record?
**A.** inconclusive: 29.1 µM [falling, single point]

**Q.** Which Potency does the source give for `NC1=NC(=O)C2(COC(c3cccc([N+](=O)[O-])c3)OC2)S1` (centres undefined) here?
**A.** inconclusive: 9.2 µM [falling, partial curve]

**Q.** With `CN(CCOc1ccc(CC2SC(=O)NC2=O)cc1)c1ccccn1` (centres undefined) as the compound, how does the Potency read?
**A.** inconclusive: 2.31 µM [falling, partial curve, poor fit]

**Q.** With `Cc1c(C(C)(C)C)sc(=NC(=O)c2ccccc2O)n1C` as the compound, how does the Potency read?
**A.** inconclusive: 4.61 µM [activator, full curve]

**Q.** For `O=S(=O)(c1ccc(Cl)cc1)c1nnn2c1nc(NC1CCCC1)c1sccc12`, which Potency is on record?
**A.** inconclusive: 29.1 µM [falling, single point]

**Q.** With `Cc1noc2ncnc(N3CCN(c4cccc(C(F)(F)F)c4)CC3)c12` as the compound, how does the Potency read?
**A.** active: 8.2 µM

**Q.** For `COc1ccc(C(=O)NC(=S)Nc2cc3oc4ccccc4c3cc2OC)cc1`, which Potency is on record?
**A.** inconclusive: 29.1 µM [activator, single point]

**Q.** With `COc1ccc(N2CCN(CCCn3c(=S)[nH]c4ccccc4c3=O)CC2)cc1` as the compound, how does the Potency read?
**A.** inconclusive: 23.1 µM [activator, partial curve]
